Usually AC50 stands for the concentration at which the activity in the assay is half-maximal.

The list shows a part of the results. The main result of the screen is listed elsewhere. These columns were measured beside it and carry no call. Most of these compounds were active or inconclusive in the main read-out, so they are no random draw. Words in brackets tell the shape of the fitted curve; partial curves, single points and poor fits give uncertain potencies.

A short description of the assay: qHTS Assay to Find Inhibitors of Chronic Active B-Cell Receptor Signaling. As to conditions: ABC-DLBCL IkBa-CBG/CBR reporter, luminescence ratio (green luciferase fused to IkBa over red control in TMD8 lymphoma cells), 4 h. In outline: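 TMD8 human ABC-DLBCL cells with doxycycline-inducible IκBα–green luciferase fusion and unfused red luciferase, in 0.5% FBS medium; compounds up to 46 uM, 4 h at 37C. Green/red luminescence ratio, filter-overlap corrected, fitted to concentration-response curves.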

Where [1] appears, read: measured here: CBR red luminescence, cell number.
Setting [2] is: measured here: IkBa-CBG green luminescence.

For the compound `Nc1nc(NCCO)nc(NCc2ccccc2)c1[N+](=O)[O-]`, under setting [1], the AC50 was 22.4 µM [falling, single point].
Same read-out and setting: the same measure for `NC(=O)c1cccc(S(=O)(=O)N2CCCCC2)c1`: 0.517 µM [rising, full curve, poor fit].
For the compound `C=CCOc1ccc2nc(NC(=O)OC)[nH]c2c1`, the AC50 was 29.1 µM [rising, single point] under setting [1] and 5.17 µM [falling, partial curve, poor fit] under setting [2].
Turning to `S=c1[nH]cnc2sc(-c3ccccc3)cc12`, the AC50 was 0.282 µM [rising, partial curve, poor fit] under setting [1] and 3.16 µM [falling, partial curve, poor fit] under setting [2].
`CCC(C)(C)NC(=O)CN(C(=O)CCC(=O)Nc1cc(C)ccn1)c1ccc2c(c1)OCO2`: the AC50 under setting [1] is 3.26 µM [falling, partial curve, poor fit].
For `COc1cc(/C=C2\SC(=N)N(c3ccc(F)cc3)C2=O)ccc1O`, the AC50 under setting [1] was 7.94 µM [falling, partial curve, poor fit].
With `Cc1ccc(Nc2nc(N)nc(CN3CCN(Cc4ccc5c(c4)OCO5)CC3)n2)c(C)c1`, the AC50 under setting [1] was 35.5 µM [falling, single point].
On to `COCCc1ncc(CN2CCCC(C(=O)Nc3cccc(-c4cccc(C)c4)c3)C2)cn1` (centres undefined), for which the AC50 under setting [1] is 12.6 µM [falling, single point].
Consider `Fc1cccc(NC(=S)NC2CCCCCCC2)c1`, for which the AC50 under setting [1] is 1.58 µM [rising, partial curve, poor fit].
As to `N=c1c2c(ncn1Cc1ccco1)Oc1ccc3ccccc3c1C2c1ccccc1` (centres undefined), the concentration at half-maximal activity (AC50) under setting [1] is 3.26 µM [falling, full curve].
With `O=C(Nc1cccc2ccccc12)OCc1cncs1`, the AC50 under setting [1] was 3.55 µM [falling, partial curve, poor fit].
Same read-out and setting: then `COc1ccc(CNc2nc3nc(C)c(Cl)c(C)n3n2)cc1`, with 7.08 µM [falling, partial curve].
In the case of `OC(COCC(F)(F)C(F)(F)C(F)(F)C(F)F)Cn1c2ccccc2c2ccccc21` (centres undefined), the AC50 runs as follows: under setting [1], 18.4 µM [falling, partial curve, poor fit]; under setting [2], 8.2 µM [rising, partial curve].
With `Cn1cnnc1SCc1ccccc1`, the concentration at half-maximal activity (AC50) under setting [1] is 29.1 µM [rising, single point].
`O=C(N/N=C/C1CC2C=CC1C2)c1ccccc1O` (centres undefined): the AC50 under setting [1] was 1.41 µM [falling, full curve].
Still for that read-out and setting: then `Cc1ccc(C(=O)N/N=C\c2cccc(OC(=O)c3cccc(F)c3)c2)cn1`, with 3.16 µM [falling, full curve].
Regarding `O=C1C=CCC(/C=C/c2ccccc2)O1` (centres undefined), the AC50 under setting [1] was 5.17 µM [falling, partial curve].
On to `CC1CN(c2nc3c(c(=O)n(Cc4ccc(Cl)c(Cl)c4)c(=O)n3C)n2C)CC(C)O1` (centres undefined), for which, under setting [1], the AC50 was 10.3 µM [rising, partial curve, poor fit].
Same read-out and setting: then `CC1CCCN(CCCOc2ccc(Br)cc2Cl)C1` (centres undefined), with 35.5 µM [falling, single point]; and `CC(C)(C)c1ccc(C(=O)N2CCC(C(=O)c3ccccc3)CC2)cc1`, with 35.5 µM [falling, single point].
For the compound `Cn1c(N=Nc2ccccc2)nc2ccccc21`, the AC50 is, setting by setting: under setting [1], 13 µM [falling, partial curve]; under setting [2], 18.4 µM [falling, single point].
With `Cc1ccc(C(=O)Nc2nc3ccccc3s2)s1`, under setting [1], the AC50 was 0.562 µM [falling, full curve, poor fit].
Same read-out and setting: the same measure for `COc1ccc([N+](=O)[O-])cc1C(=O)Nc1ccc(Cc2ccncc2)cc1`: 15.8 µM [rising, partial curve, poor fit]; for `CNc1ccccc1C(=O)OCC(=O)N1CCN(c2ccc(OC)cc2)CC1`: 28.2 µM [falling, single point].
Turning to `CC(=O)c1c(C)nc(-c2ccccc2)nc1NC(=O)Cc1ccccc1`, under setting [1], the AC50 was 0.398 µM [rising, full curve, poor fit].
Consider `NC(=O)c1ccc(SCC(=O)OCC(=O)NC2CCCCCCC2)c([N+](=O)[O-])c1`, for which the concentration at half-maximal activity (AC50) under setting [1] is 20.6 µM [falling, single point].
`OCCNc1nc(Nc2ccc(O)cc2)nc2ccccc12`: the AC50 under setting [1] is 17.8 µM [falling, partial curve, poor fit].
For the compound `CN(C)c1ccnc2sc(C(=O)c3ccccc3)c(N)c12`, the AC50 under setting [1] is 16.4 µM [falling, partial curve].
Turning to `COc1ccc(NC(=S)Nc2ccc3snnc3c2)cc1`, the AC50 under setting [1] was 4.47 µM [rising, partial curve, poor fit].
On to `O=C(NCc1ccc(F)cc1F)c1cc(COc2c(F)cccc2F)on1`, for which, under setting [1], the AC50 was 31.6 µM [rising, single point].
On the same count and under the same terms, then `O=C(N/N=C\c1ccc(CN(Cc2ccc(Cl)cc2)S(=O)(=O)c2ccccc2)o1)C(=O)Nc1ccc(F)cc1`, with 1.46 µM [falling, full curve]; and `COc1ccc(OC)c(-c2nnc(NC(=O)C(C)Sc3nncn3C)s2)c1` (centres undefined), with 16.4 µM [falling, single point].
On the same count and under the same terms, then `Cc1cc(C(=O)N/N=C\C(Br)=C\c2ccccc2)c(C)o1`, with 15.8 µM [falling, single point]; and `O=C(Nc1cc(N2CCOCC2)ncn1)c1ccc(F)cc1`, with 35.5 µM [falling, single point]; and `O=S(=O)(Nc1nc2ccc(Cl)cc2s1)c1cccs1`, with 5.62 µM [rising, single point].
The same measure, in the same setting: the same measure for `COc1ccc(CCNC(=O)c2cc3c(=O)n4ccccc4nc3n(C3CCCCC3)c2=N)cc1`: 8.91 µM [rising, partial curve, poor fit].
Take `O=C(Nc1cccc(NC(=O)c2cccs2)c1)c1cccnc1`: the AC50 under setting [1] was 22.4 µM [falling, single point].
Regarding `Cc1cc(NC(=O)/C=C/c2ccc(F)cc2)n(-c2nc3ccccc3[nH]2)n1`, the AC50 under setting [1] was 4.11 µM [falling, partial curve, poor fit].
Still for that read-out and setting: then `COc1cccc(NC(=O)c2ccc(NCCCN3CC(C)CC(C)C3)c([N+](=O)[O-])c2)c1` (centres undefined), with 11.2 µM [falling, partial curve, poor fit]; and `O=C(CSc1nc2ccc([N+](=O)[O-])cc2[nH]1)NC1CCCCCC1`, with 1.84 µM [falling, partial curve, poor fit].
